# According to PubChem BioAssay AID504845 (National Center for Advancing Translational Sciences (NCATS), 2011):
# The chains behind the UniProt entries cited, without tags or fusion partners.
# UniProt P49798, whole entry: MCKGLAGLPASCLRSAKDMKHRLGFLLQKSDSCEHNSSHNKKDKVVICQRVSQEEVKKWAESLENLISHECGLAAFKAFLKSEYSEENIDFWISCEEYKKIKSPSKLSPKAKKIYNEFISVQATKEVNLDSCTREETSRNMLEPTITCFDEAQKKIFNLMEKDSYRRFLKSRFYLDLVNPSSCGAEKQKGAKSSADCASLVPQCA
# In all, about 390,000 compounds went through this assay and about 150 (0.038%) were called active. Only results without a clear call are listed here; the source files them as inconclusive. The call rests on the fitted dose curve; in most records, active means well fitted inhibition curve with a large enough effect; inconclusive means small, poorly fitted or top-dose-only effect; inactive means no such curve, though single readings can be large or run the other way. Some of these compounds have results that are not shown, active ones among them.
# Target: Regulator of G-protein signaling 4 (Homo sapiens) (UniProt P49798)
# Assay: Inhibitors of Regulator of G Protein Signaling (RGS) 4: qHTS; further: nearly all actives have a fitted effect of over 75% in size
# Settings: Transcreener GDP fluorescence polarization, RGS4-accelerated GTP hydrolysis
# Description: G-protein-coupled receptors (GPCRs) are well-established targets for drug discovery and development. Members of the "regulator of G-protein signaling" (RGS)-protein superfamily have recently emerged as critical modulators of specific GPCR signaling pathways. […] Combining specific RGS domain inhibitors with existing GPCR agonists should potentiate cellular responses and could also increase the specificity of action of existing therapeutics. Small molecule modulators of RGS domain activity should also have clinical utility in inhibiting or potentiating the actions of endogenous GPCR agonists. In particular, the diversity of RGS proteins with highly localized and dynamically regulated distributions in the human brain makes this family of proteins attractive targets for pharmacotherapy of central nervous system (CNS) disorders such as Parkinson's disease, schizophrenia, and anxiety. […]
# Two microliters of 500nM (2x working concentration) is dispensed into black medium-binding solid-bottom Kalypsys plates. […] An initial fluorescent polarization read (620 nm/688 nm) is performed on the Envision before the plate is incubated for 90 minutes at 30 deg C at a relative humidity of 80%. The plate is once more centrifuged at 1000 RPM for 15 seconds and another Envision fluorescent polarization (620 nm/688 nm) read is carried out.
# Potency means the concentration at half of the fitted maximal effect.
row,SMILES,Potency
1,CN(C)C1CCCC1OC(=O)C(O)(c1ccccc1)c1ccccc1 (stereo unspecified),inconclusive: 56.2 µM
